Measurements: article PMC10682204
These are yes or no findings as the source states them, for the method shown. Binding calls can cover weak binding; strength is not graded here.

Experiments:
[1] = target: PtrBPL2 (Populus trichocarpa); experiment: two-hybrid; Matchmaker GAL4-based system, yeast AH109; PtrBPL baits fused to the GAL4 DNA-binding domain, AtTGA preys fused to the GAL4 activation domain; dilution series on SC/-Leu/-Trp/-His plus 10 mM 3-AT, His reporter growth above background
[2] = target: PtrBPL1 (Populus trichocarpa); experiment: as above

Binder | binding [1] | binding [2]
AtTGA8/PAN (protein, UniProt Q9SX27 1-452) MQSSFKTVPFTPDFYSQSSYFFRGDSCLEEFHQPVNGFHHEEAIDLSPNVTIASANLHYTTFDTVMDCGGGGGGGLRERLEGGEEECLDTGQLVYQKGTRLVGGGVGEVNSSWCDSVSAMADNSQHTDTSTDIDTDDKTQLNGGHQGMLLATNCSDQSNVKSSDQRTLRRLAQNREAARKSRLRKKAYVQQLENSRIRLAQLEEELKRARQQGSLVERGVSADHTHLAAGNGVFSFELEYTRWKEEHQRMINDLRSGVNSQLGDNDLRVLVDAVMSHYDEIFRLKGIGTKVDVFHMLSGMWKTPAERFFMWLGGFRSSELLKILGNHVDPLTDQQLIGICNLQQSSQQAEDALSQGMEALQQSLLETLSSASMGPNSSANVADYMGHMAMAMGKLGTLENFLRQADLLRQQTLQQLHRILTTRQAARAFLVIHDYISRLRALSSLWLARPRD | binds | binds
AtTGA4 (protein, UniProt Q39162 1-364) MNTTSTHFVPPRRFEVYEPLNQIGMWEESFKNNGDMYTPGSIIIPTNEKPDSLSEDTSHGTEGTPHKFDQEASTSRHPDKIQRRLAQNREAARKSRLRKKAYVQQLETSRLKLIHLEQELDRARQQGFYVGNGVDTNALSFSDNMSSGIVAFEMEYGHWVEEQNRQICELRTVLHGQVSDIELRSLVENAMKHYFQLFRMKSAAAKIDVFYVMSGMWKTSAERFFLWIGGFRPSELLKVLLPHFDPLTDQQLLDVCNLRQSCQQAEDALSQGMEKLQHTLAESVAAGKLGEGSYIPQMTCAMERLEALVSFVNQADHLRHETLQQMHRILTTRQAARGLLALGEYFQRLRALSSSWAARQREPT | binds | binds
